We go through 1 molecule from article PMC9440223.

For the experiment, the target named is T1, Recombinant Flag-tagged (3xF)-KCTD9 (human) (UniProt Q7L273).
T1 sequence: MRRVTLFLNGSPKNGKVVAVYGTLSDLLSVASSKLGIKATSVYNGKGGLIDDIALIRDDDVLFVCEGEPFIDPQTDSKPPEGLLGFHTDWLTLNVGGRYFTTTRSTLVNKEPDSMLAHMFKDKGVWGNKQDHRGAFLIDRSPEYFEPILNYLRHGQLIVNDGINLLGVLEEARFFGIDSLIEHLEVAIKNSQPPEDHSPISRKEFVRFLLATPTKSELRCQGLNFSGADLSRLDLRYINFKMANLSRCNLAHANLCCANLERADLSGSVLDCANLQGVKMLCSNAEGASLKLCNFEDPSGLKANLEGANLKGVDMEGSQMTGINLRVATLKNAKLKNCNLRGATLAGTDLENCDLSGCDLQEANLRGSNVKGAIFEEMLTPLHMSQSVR
In words: affinity purification with mass spectrometry; 3xF-KCTD9 immunoprecipitated with Flag antibody from HCT-116 cells, control IgG beside it; Coomassie-stained SDS-PAGE bands identified by mass spectrometry.

No constants are given. Whether binding was seen depends on the method and setting. Binding seen in cells or lysates may run through a third protein. These calls come from enrichment with a bait or labelling near it, and not all partners need be listed. Tags and fused reporters may be left off the sequences shown.

B1: ZNT9 (Zinc Transporter 9) (protein, UniProt Q6PML9 68-568)
chain: STNVQKEGQGSQTLRVEKVPSFETAEGIGTELKAPLKQEPLQVRVKAVLKKREYGSKYTQNNFITGVRAINEFCLKSSDLEQLRKIRRRSPHEDTESFTVYLRSDVEAKSLEVWGSPEALAREKKLRKEAEIEYRERLFRNQKILREYRDFLGNTKPRSRTASVFFKGPGKVVMVAICINGLNCFFKFLAWIYTGSASMFSEAIHSLSDTCNQGLLALGISKSVQTPDPSHPYGFSNMRYISSLISGVGIFMMGAGLSWYHGVMGLLHPQPIESLLWAYCILAGSLVSEGATLLVAVNELRRNARAKGMSFYKYVMESRDPSTNVILLEDTAAVLGVIIAATCMGLTSITGNPLYDSLGSLGVGTLLGMVSAFLIYTNTEALLGRSIQPEQVQRLTELLENDPSVRAIHDVKATDLGLGKVRFKAEVDFDGRVVTRSYLEKQDFDQMLQEIQEVKTPEELETFMLKHGENIIDTLGAEVDRLEKELKKRNPEVRHVDLEIL
B1: the binding entry is recorded as “binds”.
